The source of these data is the supplement of paper PMC5949888.

Most values lie at the floor of the assay. Slopes are relative: functional sequences can read slightly below zero. Some results are limits rather than exact numbers.

For this data set, the system named is Saccharomyces cerevisiae PS128 hsf1 delta, HSF1(1-493) fusion. Put plainly: growth estimate (transactivation domain function in HSF1 fusion, heat-shock survival) (a.u. (slope of normalised read count over time)); higher = stronger growth at 37°C, i.e. more transactivation activity. Conditions: library: random library.
In the case of LVGRRNPRTPRDPRADQ, the growth estimate was -0.243.
For VLC, the growth estimate was less than -0.25.
With PRSGPY, the growth estimate is less than -0.25.
With ILSI the figure was less than -0.25; with GASVRH, less than -0.25.
For the substance FREYPYELMVRNTGEDLEET, the growth estimate was less than -0.25.
With SQLRTCRSRSSLFVGTWQGM, the growth estimate was less than -0.25.
Regarding LYRIRDTA, the growth estimate was less than -0.25.
For GKLVQPAQRHVGWHMSHQVW, the growth estimate was less than -0.25.
On to SPKGTSFNTRFAASSSTVRT, for which the growth estimate is less than -0.25.
On to PRASKRGGRQLHGARTN, for which the growth estimate was less than -0.25.
Turning to NRLLEAGNMWT, the growth estimate is less than -0.25.
In the case of GRNYATPGVDRTLSAKKCTV, the growth estimate was less than -0.25.
With RLRA, the growth estimate is -0.199.
For the substance HKGEPQRYATMLYFVISGAV, the growth estimate is less than -0.25.
With RLRIRTVVKLCRMTPFVTVH the figure was less than -0.25.
Next, EWSESFARMELDLSLPGT: less than -0.25; QCGRSGAPAHRMGCTSFDSL: less than -0.25; ATRDEQGSGDVDCLTVAGRI: less than -0.25.
Turning to VRCGGPRDVQ, the growth estimate is less than -0.25.
Regarding LLCEGRFLIVPIQGYTVDVG, the growth estimate is less than -0.25.
For the substance NCHRTRAPGRSVIDQNRTMY, the growth estimate is less than -0.25.
Consider LVMRS, for which the growth estimate is less than -0.25.
On to RNGDHRNGPIIKTIRSFVRR, for which the growth estimate is less than -0.25.
Take ASRGKNICGRHDSQSHRRVA: the growth estimate is less than -0.25.
Turning to CQM, the growth estimate was less than -0.25.
Regarding SNPEYCTWITANSATAYIPH, the growth estimate was less than -0.25.
In the case of CVKKFCLNLGHGGVPPIPLG, the growth estimate is less than -0.25.
Turning to ALES, the growth estimate was less than -0.25.
For the substance CRTFCSRLVRCRMRHMVQSM, the growth estimate was less than -0.25.
Consider RTSQTHSL, for which the growth estimate is less than -0.25.
Take FGIPRPTQLWTIVWGGLSLS: the growth estimate is less than -0.25.
For RCG, the growth estimate was less than -0.25.
As for AANGMMF, the growth estimate was less than -0.25.
For LDYSPVHRKVGGTLAIGSSR, the growth estimate was less than -0.25.
As to VPPASHAPWSR, the growth estimate is less than -0.25.
GLGMVRL: the growth estimate was -0.245.
With VMVGRERMVR the figure was less than -0.25; with GPCVDPGATRLRL, less than -0.25; with SAGERLTGSVLI, less than -0.25.
Regarding LSRCGECYLYRGLLL, the growth estimate was less than -0.25.
Consider ACCKPAETESLKLDATGSLE, for which the growth estimate is less than -0.25.
Next, YRGNCRGASCRLMARSAPSS: less than -0.25; QINHRAVSSTDQKELLGDES: less than -0.25; IPCNEAGFTQGGLIERVSGY: less than -0.25.
With GGPDVCCMARDARHQTLQSH, the growth estimate was less than -0.25.
As for GMHGQACFLNRRPGCCLRPP, the growth estimate is less than -0.25.
As to FCSPQCFEAGGQKEGGREFI, the growth estimate is -0.228.
With FSGWVSRRGARTRRHWEVIH the figure was less than -0.25; with PWVIPRREDSTIQLLRP, -0.0526; with SRRRLFVTFDPYDPIIACFF, less than -0.25.
On to EPLH, for which the growth estimate is less than -0.25.
Regarding FNRVCPPLTAALVSQHNALR, the growth estimate was less than -0.25.
Regarding RCR, the growth estimate is less than -0.25.
With PSEYVLFRELNSGGNIRARR the figure was less than -0.25; with RSLAGEGSAYVYPGAIPDLG, less than -0.25; with GVPISLARAHYRLLFVQRTW, less than -0.25.
For the substance GGLSESLTRCPRLFRLRRKP, the growth estimate is less than -0.25.
RPAL: the growth estimate was less than -0.25.
For DSSNQPPFVRADKKQAVTRP, the growth estimate is less than -0.25.
In the case of GNVRNSLS, the growth estimate was less than -0.25.
With LRGLAQGDNEIPLCFSACLG the figure was -0.246.
Take RNRSQGPTE: the growth estimate is less than -0.25.
With QRVRDRTEPTAPCWPGRSAH the figure was less than -0.25.
Next, HAMTVARPGL: less than -0.25; HEHSPTGTVRKK: less than -0.25; SDKHNRPLVRGQRISVRALT: less than -0.25.
For CMV, the growth estimate was less than -0.25.
As for PGLRIRQFSYSGPRLDCMFF, the growth estimate was less than -0.25.
Next, VGA: less than -0.25.
Take VTAVRRADFSCESAVVSKRW: the growth estimate was less than -0.25.
As for APPSALQERVGLSM, the growth estimate was less than -0.25.
For the substance QDTGKV, the growth estimate was -0.246.
Next, MPQCL: less than -0.25; NRATCYVSCAFCRFAVMNAP: less than -0.25; LRDGKLVLGII: -0.245.
Next, EYYTCRRSVTTQRSPGRCKF: less than -0.25; LFRGCWLWAGWTSLGANFR: less than -0.25; SMRTRVSGYR: less than -0.25.
With FMGAAGWSTTSGGLVTYSP the figure was less than -0.25.
